Results published in PubChem BioAssay AID256 (DTP/NCI, 2004).
The list does not hold the whole screen: it gathers tests that were run many times, whatever their T/C, doses with no T/C, and many T/C values between a quarter and a half above the control. Further doses and runs are listed elsewhere. T/C gives the treated animals as a percentage of the vehicle group. Some entries give survivors of the animals treated and no T/C: the source holds a T/C of zero for them, seemingly a mark for toxic or unscored doses. Some doses without a T/C left all or most animals alive at the check, yet need not have been tolerated: the source hardly ever lists a survival T/C far under the control, and the zero likely stands for such cases as well. Counts of survivors are from the toxicity check (mostly the fifth day) where no day follows; animals may have died later. Schedules are NCI's codes, taken here to give the interval after Q, in days (D) or hours (H), and the number of doses after X. For survival time, the PubChem record calls one and a half times the control and up active, and a quarter to a half above the control has no call in these data; cut-offs in other NCI protocols can differ. Some T/C values carry the count of animals alive at the toxicity check (mostly the fifth day); without a count, all were alive then.

Test system: CD2F1 mice, L1210 leukemia ip, survival T/C
Assay: NCI In Vivo Anticancer Drug Screen. Data for tumor model L1210 Leukemia (intraperitoneal) in CD2F1 (CDF1) mice
Details: higher T/C = longer survival
How it was run: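 Implant tumor; dose compound or vehicle; measure endpoint in both groups; report treated divided by control.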

[1] = T/C endpoint: mean survival time, dose: 100.0 mg/kg/injection, schedule: Q04DX003 (ip), vehicle: saline
[2] = T/C endpoint: mean survival time, dose: 200.0 mg/kg/injection, schedule: Q04DX003 (ip), vehicle: saline
[3] = T/C endpoint: mean survival time, dose: 400.0 mg/kg/injection, schedule: Q04DX003 (ip), vehicle: saline

Question: `COC(OC(CO)C(O)S(=O)(=O)O)C(O)S(=O)(=O)O` (stereo not drawn) was tested. Which T/C (T/C endpoint: mean survival time, dose: 50.0 mg/kg/injection, schedule: Q03HX008 (ip), vehicle: saline) did it give?
Answer: Its T/C is 126 % of control.

Question: And the T/C (T/C endpoint: mean survival time, dose: 50.0 mg/kg/injection, schedule: Q03HX024 (ip), vehicle: saline)?
Answer: Its T/C is 126 % of control.

Question: What about the T/C (T/C endpoint: mean survival time, dose: 100.0 mg/kg/injection, schedule: Q01DX009 (ip), vehicle: saline) of the same compound?
Answer: Its T/C is 133 % of control.

Question: What about the T/C (T/C endpoint: mean survival time, dose: 100.0 mg/kg/injection, schedule: Q03HX024 (ip), vehicle: saline) of the same compound?
Answer: The T/C was 134 % of control.

Question: And the T/C [1]?
Answer: The T/C was 128 % of control.

Question: What about the T/C (T/C endpoint: mean survival time, dose: 200.0 mg/kg/injection, schedule: Q01DX001 (ip), vehicle: saline) of the same compound?
Answer: Its T/C is 127 % of control.

Question: What about the T/C (T/C endpoint: mean survival time, dose: 200.0 mg/kg/injection, schedule: Q01DX009 (ip), vehicle: saline) of the same compound?
Answer: The T/C was 143 % of control.

Question: What about the survivor count (T/C endpoint: mean survival time, dose: 200.0 mg/kg/injection, schedule: Q03HX008 (ip), vehicle: saline) of the same compound?
Answer: The survivor count was 0 of 10.

Question: And the survivor count (T/C endpoint: mean survival time, dose: 200.0 mg/kg/injection, schedule: Q03HX016 (ip), vehicle: saline)?
Answer: The survivor count was 0 of 10.

Question: What about the survivor count (T/C endpoint: mean survival time, dose: 200.0 mg/kg/injection, schedule: Q03HX024 (ip), vehicle: saline) of the same compound?
Answer: The survivor count was 0 of 10.

Question: What about the T/C [2] of the same compound?
Answer: The T/C was 139 % of control.

Question: What about the T/C (T/C endpoint: mean survival time, dose: 400.0 mg/kg/injection, schedule: Q01DX001 (ip), vehicle: saline) of the same compound?
Answer: The T/C was 135 % of control.

Question: What about the survivor count (T/C endpoint: mean survival time, dose: 400.0 mg/kg/injection, schedule: Q03HX008 (ip), vehicle: saline) of the same compound?
Answer: Its survivor count is 0 of 10.

Question: And the survivor count (T/C endpoint: mean survival time, dose: 400.0 mg/kg/injection, schedule: Q03HX016 (ip), vehicle: saline)?
Answer: The survivor count was 0 of 10.

Question: What about the survivor count (T/C endpoint: mean survival time, dose: 400.0 mg/kg/injection, schedule: Q03HX024 (ip), vehicle: saline) of the same compound?
Answer: The survivor count was 0 of 10.

Question: What about the T/C [3] of the same compound?
Answer: Its T/C is 143 % of control.

Question: And the T/C (T/C endpoint: mean survival time, dose: 400.0 mg/kg/injection, schedule: Q08DX002 (ip), vehicle: saline)?
Answer: Its T/C is 126 % of control.

Question: What about the T/C (T/C endpoint: mean survival time, dose: 800.0 mg/kg/injection, schedule: Q01DX001 (ip), vehicle: saline) of the same compound?
Answer: Its T/C is 144 % of control.

Question: What about the T/C (T/C endpoint: mean survival time, dose: 800.0 mg/kg/injection, schedule: Q08DX002 (ip), vehicle: saline) of the same compound?
Answer: Its T/C is 141 % of control.

Question: `CC(=O)NC1=C(NC(C)C)C(=O)c2ccccc2C1=O` was tested. Which survivor count [1] did it give?
Answer: Its survivor count is 0 of 6.

Question: And the survivor count [2]?
Answer: Its survivor count is 0 of 6.

Question: What about the survivor count [3] of the same compound?
Answer: The survivor count was 0 of 6.

Question: Which T/C (T/C endpoint: mean survival time, dose: 200.0 mg/kg/injection, schedule: Q01DX009 (ip), vehicle: Klucel (hydroxypropylcellulose) (HPC)) does the source give for `O=C1CC2(C(=O)N1CN1CCCCC1)c1ccccc1-c1ccccc12` here?
Answer: Its T/C is 131 % of control.

Question: What about the T/C (T/C endpoint: mean survival time, dose: 400.0 mg/kg/injection, schedule: Q01DX009 (ip), vehicle: Klucel (hydroxypropylcellulose) (HPC)) of the same compound?
Answer: Its T/C is 145 % of control [4 of 6 alive].

Question: For `O=C1OC(c2ccc(Cl)cc2)=N/C1=C\c1ccccc1`, which survivor count (T/C endpoint: mean survival time, dose: 400.0 mg/kg/injection, schedule: Q01DX009 (ip), vehicle: acetone) is on record?
Answer: The survivor count was 2 of 6.

Question: For `Nc1ncnc2c1c1c(=O)[nH]nnc1n2C1OC(CO)C(O)C1O` (stereo not drawn), which survivor count (T/C endpoint: mean survival time, dose: 100.0 mg/kg/injection, schedule: Q01DX009 (ip), vehicle: distilled water + Tween-80) is on record?
Answer: Its survivor count is 4 of 4.

Question: What about the survivor count (T/C endpoint: mean survival time, dose: 200.0 mg/kg/injection, schedule: Q01DX005 (ip), vehicle: water) of the same compound?
Answer: The survivor count was 5 of 5.

Question: What about the survivor count (T/C endpoint: mean survival time, dose: 200.0 mg/kg/injection, schedule: Q01DX009 (ip), vehicle: distilled water + Tween-80) of the same compound?
Answer: The survivor count was 3 of 4.

Question: And the survivor count (T/C endpoint: mean survival time, dose: 400.0 mg/kg/injection, schedule: Q01DX005 (ip), vehicle: water)?
Answer: The survivor count was 0 of 5.

Question: How did the T/C (T/C endpoint: median survival time, dose: 1.8 mg/kg/injection, schedule: Q01DX005 (ip), vehicle: other) turn out when `COC1C(N)C(OC2C(Oc3cccc4c(O)c5c(=O)oc6ccc(C)c7c(=O)oc(c34)c5c67)OC(C)C(O)C2(C)O)OC(C)C1O` (stereo not drawn) was run?
Answer: Its T/C is 144 % of control.

Question: And the T/C (T/C endpoint: median survival time, dose: 2.5 mg/kg/injection, schedule: Q01DX005 (ip), vehicle: other)?
Answer: The T/C was 139 % of control.

Question: What about the survivor count (T/C endpoint: median survival time, dose: 8.33 mg/kg/injection, schedule: Q01DX005 (ip), vehicle: other) of the same compound?
Answer: Its survivor count is 2 of 6.

Question: And the survivor count (T/C endpoint: median survival time, dose: 10.0 mg/kg/injection, schedule: Q01DX005 (ip), vehicle: other)?
Answer: Its survivor count is 0 of 6.

Question: And the survivor count (T/C endpoint: median survival time, dose: 13.88 mg/kg/injection, schedule: Q01DX005 (ip), vehicle: other)?
Answer: Its survivor count is 0 of 6.

Question: What about the survivor count (T/C endpoint: median survival time, dose: 20.0 mg/kg/injection, schedule: Q01DX005 (ip), vehicle: other) of the same compound?
Answer: The survivor count was 0 of 6.

Question: What does the source list for `COc1cccc2c1C(=O)c1c(O)c3c(c(O)c1C2=O)C[C@@](O)(C(=O)COC(=O)c1cccnc1)C[C@@H]3OC1CC(N)C(O)C(C)O1` (stereo partly drawn)?
Answer: T/C (T/C endpoint: mean survival time, dose: 0.75 mg/kg/injection, schedule: Q01DX009 (ip), vehicle: saline with Tween-80): 133 % of control; T/C (T/C endpoint: mean survival time, dose: 0.9 mg/kg/injection, schedule: Q01DX009 (ip), vehicle: saline): 147 % of control; T/C (T/C endpoint: mean survival time, dose: 1.5 mg/kg/injection, schedule: Q01DX009 (ip), vehicle: saline with Tween-80): 138 % of control; T/C (T/C endpoint: mean survival time, dose: 2.25 mg/kg/injection, schedule: Q01DX009 (ip), vehicle: saline): 135 % of control

Question: For `CC(=O)N1CCc2nc3ccccc3cc21`, which survivor count (T/C endpoint: mean survival time, dose: 225.0 mg/kg/injection, schedule: Q01DX009 (ip), vehicle: saline with Tween-80) is on record?
Answer: Its survivor count is 0 of 6.

Question: What about the survivor count (T/C endpoint: mean survival time, dose: 340.0 mg/kg/injection, schedule: Q01DX009 (ip), vehicle: saline with Tween-80) of the same compound?
Answer: Its survivor count is 0 of 6.

Question: How did the survivor count [2] turn out when `CC(O)c1ccc2c(c1)N(CCCN1CCN(CCO)CC1)c1ccccc1S2` (stereo not drawn) was run?
Answer: The survivor count was 0 of 6.

Question: And the survivor count [3]?
Answer: The survivor count was 0 of 6.
